The target in this assay is T1, dTBCE-GFP (Drosophila melanogaster tubulin-binding co-factor E, C-terminal GFP fusion), stable S2 cell line (Drosophila melanogaster) (UniProt A1Z6J5).
T1 sequence: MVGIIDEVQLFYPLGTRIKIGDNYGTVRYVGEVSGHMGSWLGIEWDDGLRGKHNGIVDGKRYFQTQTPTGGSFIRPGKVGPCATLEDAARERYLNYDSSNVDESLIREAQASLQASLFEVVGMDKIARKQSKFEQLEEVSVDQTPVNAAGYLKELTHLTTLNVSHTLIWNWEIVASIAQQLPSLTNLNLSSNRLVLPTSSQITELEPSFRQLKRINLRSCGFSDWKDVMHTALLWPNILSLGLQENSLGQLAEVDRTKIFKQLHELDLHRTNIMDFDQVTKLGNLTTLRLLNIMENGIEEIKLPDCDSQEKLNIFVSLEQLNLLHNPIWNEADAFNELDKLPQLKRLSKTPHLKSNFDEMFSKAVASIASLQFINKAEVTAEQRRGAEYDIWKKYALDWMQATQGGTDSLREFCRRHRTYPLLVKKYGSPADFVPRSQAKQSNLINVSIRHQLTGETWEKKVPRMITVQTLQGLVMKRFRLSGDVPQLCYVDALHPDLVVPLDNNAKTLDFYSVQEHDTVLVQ
Description: affinity purification with mass spectrometry.

No constants are given. Whether binding was seen depends on the method and setting. In cells and extracts the contact can be indirect. A yes stands for co-enrichment or nearness to the bait. Other partners may have been found. Tags and fused reporters may be left off the sequences shown.

Data on one substance can be found in publication doi:10.1101/2020.01.21.912428.

Consider Ran (from UniProt Q9VZ23 1-216), for which the binding entry is “binds”.
